The list shows a part of the results. Single values are uncertain, as repeats are few or missing.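 The assay uses a mixed pool of 41 HAP1 clones in which 61 cancer-associated proteins bear intron-inserted fluorescent tags, and clones are distinguished by image pattern. Results are compared against DMSO-treated control wells, and the BRD4 degrader dBET6 is the positive control.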
Key:
[1] = target: XPO1 (intron 15 mScarlet tag, HAP1) (UniProt O14980); assay: XPO1 fluorescence intensity change vs DMSO (log2 fold change); higher = more XPO1 protein; conditions: 6 h
[2] = target: BRD4 (intron 10 mScarlet tag, HAP1) (UniProt O60885); assay: BRD4 median nuclear fluorescence intensity change vs DMSO (log2 fold change); higher = more BRD4 protein; conditions: 6 h

Sequences of proteins named here, by UniProt entry; tags and fusion partners are left off.
UniProt O14980, whole entry: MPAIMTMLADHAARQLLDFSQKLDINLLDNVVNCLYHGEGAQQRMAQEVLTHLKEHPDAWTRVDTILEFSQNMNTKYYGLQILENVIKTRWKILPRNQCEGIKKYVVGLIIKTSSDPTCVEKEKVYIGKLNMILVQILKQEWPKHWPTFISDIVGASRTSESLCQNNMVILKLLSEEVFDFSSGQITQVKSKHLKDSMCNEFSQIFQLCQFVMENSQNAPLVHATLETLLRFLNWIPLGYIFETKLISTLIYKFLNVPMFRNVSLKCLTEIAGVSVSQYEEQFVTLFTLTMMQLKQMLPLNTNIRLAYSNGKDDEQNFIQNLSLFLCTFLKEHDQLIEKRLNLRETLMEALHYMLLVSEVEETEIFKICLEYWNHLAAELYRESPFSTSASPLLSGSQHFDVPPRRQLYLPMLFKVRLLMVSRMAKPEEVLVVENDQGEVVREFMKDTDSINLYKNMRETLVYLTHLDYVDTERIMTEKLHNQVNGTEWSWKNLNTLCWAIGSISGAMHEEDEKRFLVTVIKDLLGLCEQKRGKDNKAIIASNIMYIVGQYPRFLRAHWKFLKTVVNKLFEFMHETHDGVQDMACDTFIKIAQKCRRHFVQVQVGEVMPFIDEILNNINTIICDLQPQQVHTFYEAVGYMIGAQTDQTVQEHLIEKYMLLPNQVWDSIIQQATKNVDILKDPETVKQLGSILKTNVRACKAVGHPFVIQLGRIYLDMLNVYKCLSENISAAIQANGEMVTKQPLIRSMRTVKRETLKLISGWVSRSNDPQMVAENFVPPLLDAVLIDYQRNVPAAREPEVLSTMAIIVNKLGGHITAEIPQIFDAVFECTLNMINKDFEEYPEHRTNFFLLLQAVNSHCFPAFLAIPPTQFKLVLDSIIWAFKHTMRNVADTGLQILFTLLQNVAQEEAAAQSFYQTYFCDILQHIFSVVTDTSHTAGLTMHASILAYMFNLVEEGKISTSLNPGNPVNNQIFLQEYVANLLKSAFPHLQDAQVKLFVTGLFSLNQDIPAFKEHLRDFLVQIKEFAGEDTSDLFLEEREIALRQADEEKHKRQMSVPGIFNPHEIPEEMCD

Row | Compound | XPO1 fluorescence intensity change (log2) [1] | BRD4 median nuclear fluorescence intensity change (log2) [2]
1 | Cn1c(=O)c2sccc2n2c(CCl)nnc12 (10 µM) | 0.0865 | -0.0154
2 | O=C(O)CSc1cc(NS(=O)(=O)c2ccc(Br)cc2)c2ccccc2c1O (10 µM) | -0.165 | -0.0604
3 | ClCc1nc(-c2ccccc2Cl)c2cc(Cl)ccc2n1 (10 µM) | -0.109 | -0.0948
4 | CN(Cc1cnn(C)c1)C(=O)c1ccc(NC(=O)c2ccco2)s1 (10 µM) | 0.085 | 0.0109
5 | O=C(Nc1ccc(OC(F)(F)F)cc1)N1CCc2ccccc2C1 (10 µM) | 0.101 | 0.0406
6 | COc1cc(C(=O)c2c(-c3ccccc3)cc3ccccn23)cc(OC)c1OC (1 µM) | -0.133 | -0.0139
7 | COc1ccccc1C(=O)Nc1nc2ccccc2s1 (10 µM) | 0.058 | -0.0306
8 | Cc1ccc(-c2nc(C(=O)Nc3cccnc3N(C)C)cs2)o1 (10 µM) | -0.0556 | 0.119
9 | N#CCn1c(CCl)nc2sc3c(c2c1=O)CCCC3 (10 µM) | -0.408 | 0.0895
10 | Cc1ccc(NC(=O)c2nnc(CCl)s2)cc1 (10 µM) | 0.0601 | -0.00647
11 | CCc1cccc(NC(=O)CSc2nc3ccccc3c(=O)n2C(C)C)c1 (1 µM) | -0.107 | 0.215
12 | O=C(/C=C/c1ccc(F)cc1)c1ccc(O)c(CCCl)c1 (10 µM) | -0.223 | -0.0506
13 | Fc1cc(CCl)c2c(c1)COC(c1ccsc1)O2 (stereo not given) (1 µM) | 0.216 | 0.0515
14 | Cc1ccc2[nH]c(C(=O)N(C)Cc3ccc(Br)o3)cc2c1 (10 µM) | -0.568 | 0.00846
15 | N=c1n(CCOc2ccccc2)c2ccccc2n1Cc1ccccc1F (10 µM) | 0.0243 | 0.178
16 | COc1ccc(-c2csc(NC(=O)c3cc(C)nn3C)n2)cc1 (0.1 µM) | -0.00497 | 0.0901
17 | COc1ccc(CNC(C)c2ccc(Cl)c(Cl)c2)cc1O (stereo not given) (10 µM) | 0.0891 | 0.117
18 | COc1ccc(C(CC(=O)c2ccco2)Sc2cccc3cccnc23)cc1OC (stereo not given) (1 µM) | 0.104 | -0.0365
19 | CC(=O)c1cccc(NC(=O)C(C)N(C)Cc2ccccc2N2CCCCC2)c1 (stereo not given) (10 µM) | -0.136 | 0.0271
20 | Cc1cccc(N2CCN(C(=O)c3cccc(Cl)c3)CC2C)c1 (stereo not given) (10 µM) | -0.0207 | -0.037

Row | Compound | XPO1 fluorescence intensity change (log2) [1] | BRD4 median nuclear fluorescence intensity change (log2) [2]
21 | CN(CC(=O)NCc1ccco1)C(=O)c1ccc(-c2ccccc2)cc1 (10 µM) | -0.286 | 0.116
22 | O=c1c(Cl)c(Cl)cnn1Cc1ccccc1Cl (1 µM) | -0.00214 | 0.216
23 | COc1ccc2c(c1)CCCN2C(=O)c1cc(Cl)cc(Cl)c1 (10 µM) | -0.162 | 0.1
24 | Cc1ccccc1-n1c(C)cc(C(=O)Cn2nc(-c3ccco3)oc2=O)c1C (1 µM) | -0.154 | -0.0598
25 | CCOc1ccc(S(=O)(=O)Nc2cc(C(=O)OC)ccc2C)cc1 (1 µM) | 0.045 | 0.0151
26 | c1ccc(Cn2cc(Nc3nc4ccccc4s3)cn2)cc1 (1 µM) | -0.0216 | -0.0852
27 | CN(C)c1ccc(C(=NC(=O)c2ccc(NS(=O)(=O)c3cccs3)cc2)c2ccc(N(C)C)cc2)cc1 (10 µM) | -0.253 | 0.0701
28 | Cn1cccc1/C=C(\C(=O)c1ccccc1)N1C=CC=CC1=C(C#N)C#N (10 µM) | -0.0833 | -0.0106
29 | Cc1noc(-c2ccccc2NC(=O)c2ccccc2Br)n1 (10 µM) | 0.00377 | 0.0283
30 | Cc1cc(Nc2ccc3[nH]c(C)cc3c2)nc(C)n1 (10 µM) | -0.063 | 0.0425
31 | CCN(CC)Cc1ccc(O)c2ncccc12 (1 µM) | -0.0237 | -0.0553
32 | Oc1c(C(c2ccncc2)N2CCCC2)ccc2cccnc12 (stereo not given) (10 µM) | 0.159 | 0.0569
33 | CN(C)C(=O)c1ccc(CNC(=O)CCCOc2ccc(C(C)(C)C)cc2)cc1 (10 µM) | -0.135 | 0.0499
34 | Cc1noc(C)c1COc1cc2ccccc2cc1C(=O)Nc1ccn(C)n1 (10 µM) | 0.00732 | 0.122
35 | Cc1cc(C(C)Nc2ncnc3c2cnn3CCC#N)c(C)s1 (stereo not given) (10 µM) | 0.213 | 0.0796
36 | Nc1ncn([C@H]2C[C@H](O)[C@@H](CO)O2)c(=O)n1 [decitabine] (10 µM) | -0.121 | 0.0765
37 | CC(C)c1cc(NC(=O)CCCn2c(=O)oc3ccccc32)n[nH]1 (10 µM) | -0.0283 | 0.356
38 | Cn1c(=O)[nH]c(=O)c2c1nc(CN1CCN(Cc3ccccc3)CC1)n2Cc1ccc(Cl)cc1 (10 µM) | -0.0711 | 0.00902
39 | Cc1[nH]c2ccccc2c1CN1CCC(Cc2ccccc2)CC1 (10 µM) | -0.11 | 0.049
40 | OC(CN1CCCC1)Cn1c2ccc(Cl)cc2c2cc(Cl)ccc21 (stereo not given) (10 µM) | -0.0245 | 0.0552

Eight neighbouring compounds already listed:
Row | Compound | XPO1 fluorescence intensity change (log2) [1] | BRD4 median nuclear fluorescence intensity change (log2) [2]
20 | Cc1cccc(N2CCN(C(=O)c3cccc(Cl)c3)CC2C)c1 (stereo not given) (10 µM) | -0.0207 | -0.037
21 | CN(CC(=O)NCc1ccco1)C(=O)c1ccc(-c2ccccc2)cc1 (10 µM) | -0.286 | 0.116
22 | O=c1c(Cl)c(Cl)cnn1Cc1ccccc1Cl (1 µM) | -0.00214 | 0.216
23 | COc1ccc2c(c1)CCCN2C(=O)c1cc(Cl)cc(Cl)c1 (10 µM) | -0.162 | 0.1
24 | Cc1ccccc1-n1c(C)cc(C(=O)Cn2nc(-c3ccco3)oc2=O)c1C (1 µM) | -0.154 | -0.0598
25 | CCOc1ccc(S(=O)(=O)Nc2cc(C(=O)OC)ccc2C)cc1 (1 µM) | 0.045 | 0.0151
26 | c1ccc(Cn2cc(Nc3nc4ccccc4s3)cn2)cc1 (1 µM) | -0.0216 | -0.0852
27 | CN(C)c1ccc(C(=NC(=O)c2ccc(NS(=O)(=O)c3cccs3)cc2)c2ccc(N(C)C)cc2)cc1 (10 µM) | -0.253 | 0.0701
